Test [1] has as its target HA-tagged rNav1.2 α subunit (UniProt P04775). Briefly: co-immunoprecipitation from cotransfected tsA-201 cells with SP20, SDS-PAGE, anti-HA11 immunoblot. On the technique in general: In western blotting, separated proteins are transferred to a membrane and probed.
Test [2] has as its target untagged rNav1.2 α subunit (UniProt P04775). The description is as above.

Sequences of proteins named here, by UniProt entry; tags and fusion partners are left off.
UniProt P04775: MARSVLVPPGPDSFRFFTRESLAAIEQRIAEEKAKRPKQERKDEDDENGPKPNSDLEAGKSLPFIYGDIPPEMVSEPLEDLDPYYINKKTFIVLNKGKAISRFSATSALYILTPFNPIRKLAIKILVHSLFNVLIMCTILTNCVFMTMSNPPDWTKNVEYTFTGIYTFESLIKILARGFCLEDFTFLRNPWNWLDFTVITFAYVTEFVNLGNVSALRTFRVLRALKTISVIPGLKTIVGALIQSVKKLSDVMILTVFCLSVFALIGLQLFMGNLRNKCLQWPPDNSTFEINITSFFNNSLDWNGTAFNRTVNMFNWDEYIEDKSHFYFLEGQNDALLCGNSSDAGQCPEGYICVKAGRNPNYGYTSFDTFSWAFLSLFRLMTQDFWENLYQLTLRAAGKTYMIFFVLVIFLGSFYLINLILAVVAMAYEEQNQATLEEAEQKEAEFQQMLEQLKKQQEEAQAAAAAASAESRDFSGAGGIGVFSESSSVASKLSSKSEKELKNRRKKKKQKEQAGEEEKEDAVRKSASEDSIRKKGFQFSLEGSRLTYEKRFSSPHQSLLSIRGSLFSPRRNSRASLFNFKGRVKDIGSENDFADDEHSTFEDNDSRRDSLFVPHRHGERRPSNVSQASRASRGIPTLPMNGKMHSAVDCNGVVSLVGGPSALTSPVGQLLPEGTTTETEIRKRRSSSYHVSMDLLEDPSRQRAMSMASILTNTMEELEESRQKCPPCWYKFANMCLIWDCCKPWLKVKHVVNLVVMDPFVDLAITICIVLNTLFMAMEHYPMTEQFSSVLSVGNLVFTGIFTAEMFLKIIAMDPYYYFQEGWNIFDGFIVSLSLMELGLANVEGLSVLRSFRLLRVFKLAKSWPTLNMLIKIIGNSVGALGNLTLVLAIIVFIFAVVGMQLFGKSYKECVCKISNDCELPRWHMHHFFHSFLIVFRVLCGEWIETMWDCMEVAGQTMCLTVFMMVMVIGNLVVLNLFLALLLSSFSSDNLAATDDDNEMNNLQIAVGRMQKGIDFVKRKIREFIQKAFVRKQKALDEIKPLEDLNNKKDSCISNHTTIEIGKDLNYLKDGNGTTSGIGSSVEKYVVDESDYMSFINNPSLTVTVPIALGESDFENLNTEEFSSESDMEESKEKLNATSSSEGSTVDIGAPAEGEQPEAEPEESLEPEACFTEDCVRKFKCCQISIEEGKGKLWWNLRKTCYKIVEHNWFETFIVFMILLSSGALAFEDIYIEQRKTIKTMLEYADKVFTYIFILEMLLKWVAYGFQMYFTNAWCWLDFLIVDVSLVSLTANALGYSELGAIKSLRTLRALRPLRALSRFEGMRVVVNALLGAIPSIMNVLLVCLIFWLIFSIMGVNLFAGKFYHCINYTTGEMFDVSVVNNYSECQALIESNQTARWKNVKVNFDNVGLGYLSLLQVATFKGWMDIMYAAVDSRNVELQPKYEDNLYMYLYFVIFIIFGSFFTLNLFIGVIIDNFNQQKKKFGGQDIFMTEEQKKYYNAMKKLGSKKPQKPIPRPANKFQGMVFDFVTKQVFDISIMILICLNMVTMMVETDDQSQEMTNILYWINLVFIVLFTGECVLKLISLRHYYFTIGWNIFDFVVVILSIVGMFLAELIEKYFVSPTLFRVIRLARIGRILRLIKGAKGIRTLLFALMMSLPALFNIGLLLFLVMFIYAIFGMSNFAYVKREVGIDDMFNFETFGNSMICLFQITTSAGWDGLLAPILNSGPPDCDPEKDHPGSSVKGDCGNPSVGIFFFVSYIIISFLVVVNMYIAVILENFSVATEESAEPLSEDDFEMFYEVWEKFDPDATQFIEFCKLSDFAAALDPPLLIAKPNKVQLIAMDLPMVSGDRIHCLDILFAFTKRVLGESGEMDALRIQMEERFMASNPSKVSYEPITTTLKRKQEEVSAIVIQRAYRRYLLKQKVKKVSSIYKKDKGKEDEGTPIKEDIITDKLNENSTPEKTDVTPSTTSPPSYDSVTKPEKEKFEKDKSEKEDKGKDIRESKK

The results in this text go back to patent publication US20030022205A1.

These are yes or no findings as the source states them, for the method shown. Binding seen in cells or lysates may run through a third protein. Some binding calls cover weakened binding; strength is not graded here. Tags and fused reporters may be left off the sequences shown.

B1: HA-tagged β4 subunit (98359, sodium channel beta-4 subunit) (protein, not shown: small tags and cut ends)
chain: LEVSVGKATDIYAVNGTEILLPCTFSSCFGFEDLHFRWTYNSSDAFKILIEGTVKNEKSDPKVTLKDDDRITLVGSTKEKMNNISIVLRDLEFSDTGKYTCHVKNPKENNLQHHATIFLQVVDRLEEVDNTVTLIILAVVGGVIGLLILILLIKKLIIFILKKTREKKKECLVSSSGNDNTENGLPGSKAEEKPPSKV
For the molecule B1, the binding entry in test [1] and in test [2] was “binds” in each case.
